Reference: US20230126199A1
Results are given in words; binding and its absence hold for the method and conditions named. Some binding calls cover weakened binding; strength is not graded here.

Sequences of proteins named here, by UniProt entry; tags and fusion partners are left off. A change or cut given only in a name is not applied to a line headed by its entry.
UniProt P14434: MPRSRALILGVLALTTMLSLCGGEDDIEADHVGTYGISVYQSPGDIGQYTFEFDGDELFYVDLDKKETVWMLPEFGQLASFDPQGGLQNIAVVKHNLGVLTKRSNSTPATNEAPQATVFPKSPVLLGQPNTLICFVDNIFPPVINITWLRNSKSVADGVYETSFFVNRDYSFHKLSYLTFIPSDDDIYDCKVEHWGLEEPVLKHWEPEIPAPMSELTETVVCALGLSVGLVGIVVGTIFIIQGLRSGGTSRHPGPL

Biological target: sc-Dimer-CD81-IL-12p40 with MHC class IIα chain (Mus musculus (Mouse)) (UniProt P14434)
Test: co-expression of the free IL-12 subunit with the CD81-anchored subunit; IL-12 found on vesicles by flow cytometry

binding: binds
B1: IL-12p35 (SEQ ID NO: 97) (ligand)
chain: MWELEKDVYVVEVDWTPDAPGETVNLTCDTPEEDDITWTSDQRHGVIGSGKTLTITVKEFLDAGQYTCHKGGETLSHSHLLLHKKENGIWSTEILKNFKNKTFLKCEAPNYSGRFTCSWLVQRNMDLKFNIKSSSSSPDSRAVTCGMASLSAEKVTLDQRDYEKYSVSCQEDVTCPTAEETLPIELALEARQQNKYENYSTSFFIRDIIKPDPPKNLQMKPLKNSQVEVSWEYPDSWSTPHSYFSLKFFVRIQRKKEKMKETEEGCNQKGAFLVEKTSTEVQCKGGNVCVQAQDRYYNSSCSKWACVPCRVRS
